{
  "source": "the supplement of paper PMC8728848",
  "experiment_in_all_cases": "glycan array binding signal (z-score within array); higher = stronger binding",
  "settings_in_all_cases": "glycan notation: IUPAC condensed, linker removed",
  "key": {"[1]": {"biological_target": "Fuc(a1-2)Gal(b1-4)[Fuc(a1-3)]GlcNAc", "method_in_brief": "(§1)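 Glycan array data came from 3228 arrays in the Consortium for Functional Glycomics database, and only arrays with an available protein sequence were kept. Glycan names were put into IUPAC-condensed notation, and columns mapping to the same glycan were averaged. The binding signal is a within-array Z-score, averaged across arrays of one protein sequence run at different concentrations or buffers and across linkers. A negative Z-score can be read as non-binding.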"}, "[2]": {"biological_target": "Fuc(a1-2)Gal(b1-4)[Fuc(a1-3)]GlcNAc(b1-2)Man(a1-3)[Fuc(a1-2)Gal(b1-4)[Fuc(a1-3)]GlcNAc(b1-2)Man(a1-6)]Man(b1-4)GlcNAc(b1-4)[Fuc(a1-6)]GlcNAc", "method_in_brief": "as §1"}, "[3]": {"biological_target": "Fuc(a1-2)Gal(b1-4)[Fuc(a1-3)]GlcNAc(b1-2)[Fuc(a1-2)Gal(b1-4)[Fuc(a1-3)]GlcNAc(b1-4)]Man(a1-3)[Fuc(a1-2)Gal(b1-4)[Fuc(a1-3)]GlcNAc(b1-2)Man(a1-6)]Man(b1-4)GlcNAc(b1-4)GlcNAc", "method_in_brief": "as §1"}, "[4]": {"biological_target": "Fuc(a1-2)Gal(b1-4)[Fuc(a1-3)]GlcNAc(b1-3)Gal(b1-4)[Fuc(a1-3)]GlcNAc", "method_in_brief": "as §1"}, "[5]": {"biological_target": "Fuc(a1-2)Gal(b1-4)[Fuc(a1-3)]GlcNAc(b1-3)Gal(b1-4)[Fuc(a1-3)]GlcNAc(b1-3)Gal(b1-4)[Fuc(a1-3)]GlcNAc", "method_in_brief": "as §1"}, "[6]": {"biological_target": "Fuc(a1-2)Gal(b1-4)[Fuc(a1-3)]GlcNAc(b1-3)GalNAc", "method_in_brief": "as §1"}, "[7]": {"biological_target": "Fuc(a1-2)Gal(b1-4)[Fuc(a1-3)]GlcNAc(b1-3)[Neu5Ac(a2-6)Gal(b1-4)GlcNAc(b1-6)]Gal(b1-4)Glc", "method_in_brief": "as §1"}, "[8]": {"biological_target": "Fuc(a1-2)Gal3S(b1-4)GlcNAc", "method_in_brief": "as §1"}, "[9]": {"biological_target": "Fuc(a1-2)Gal6S(b1-3)GlcNAc", "method_in_brief": "as §1"}, "[10]": {"biological_target": "Fuc(a1-2)Gal6S(b1-3)GlcNAc6S", "method_in_brief": "as §1"}, "Fuc(a1-2)Gal6S(b1-4)Glc": {"biological_target": "Fuc(a1-2)Gal6S(b1-4)Glc", "method_in_brief": "as §1"}, "[11]": {"biological_target": "Fuc(a1-2)Gal6S(b1-4)Glc6S", "method_in_brief": "as §1"}, "Fuc(a1-2)[Gal(a1-3)]Gal": {"biological_target": "Fuc(a1-2)[Gal(a1-3)]Gal", "method_in_brief": "as §1"}, "[12]": {"biological_target": "Fuc(a1-2)[Gal(a1-3)]Gal(b1-3)GalNAc", "method_in_brief": "as §1"}, "[13]": {"biological_target": "Fuc(a1-2)[Gal(a1-3)]Gal(b1-3)GalNAc(b1-3)Gal(a1-4)Gal(b1-4)Glc", "method_in_brief": "as §1"}, "[14]": {"biological_target": "Fuc(a1-2)[Gal(a1-3)]Gal(b1-3)GlcNAc", "method_in_brief": "as §1"}, "[15]": {"biological_target": "Fuc(a1-2)[Gal(a1-3)]Gal(b1-3)GlcNAc(b1-2)Man(a1-3)[Fuc(a1-2)[Gal(a1-3)]Gal(b1-3)GlcNAc(b1-2)Man(a1-6)]Man(b1-4)GlcNAc(b1-4)GlcNAc", "method_in_brief": "as §1"}, "[16]": {"biological_target": "Fuc(a1-2)[Gal(a1-3)]Gal(b1-3)GlcNAc(b1-2)Man(a1-3)[Fuc(a1-2)[Gal(a1-3)]Gal(b1-3)GlcNAc(b1-2)Man(a1-6)]Man(b1-4)GlcNAc(b1-4)[Fuc(a1-6)]GlcNAc", "method_in_brief": "as §1"}, "[17]": {"biological_target": "Fuc(a1-2)[Gal(a1-3)]Gal(b1-3)GlcNAc(b1-3)GalNAc", "method_in_brief": "as §1"}, "[18]": {"biological_target": "Fuc(a1-2)[Gal(a1-3)]Gal(b1-3)GlcNAc(b1-6)GalNAc", "method_in_brief": "as §1"}, "[19]": {"biological_target": "Fuc(a1-2)[Gal(a1-3)]Gal(b1-4)Glc", "method_in_brief": "as §1"}, "[20]": {"biological_target": "Fuc(a1-2)[Gal(a1-3)]Gal(b1-4)GlcNAc", "method_in_brief": "as §1"}, "[21]": {"biological_target": "Fuc(a1-2)[Gal(a1-3)]Gal(b1-4)GlcNAc(b1-2)Man", "method_in_brief": "as §1"}, "[22]": {"biological_target": "Fuc(a1-2)[Gal(a1-3)]Gal(b1-4)GlcNAc(b1-2)Man(a1-3)[Fuc(a1-2)[Gal(a1-3)]Gal(b1-4)GlcNAc(b1-2)Man(a1-6)]Man(b1-4)GlcNAc(b1-4)GlcNAc", "method_in_brief": "as §1"}, "[23]": {"biological_target": "Fuc(a1-2)[Gal(a1-3)]Gal(b1-4)GlcNAc(b1-2)Man(a1-3)[Fuc(a1-2)[Gal(a1-3)]Gal(b1-4)GlcNAc(b1-2)Man(a1-6)]Man(b1-4)GlcNAc(b1-4)[Fuc(a1-6)]GlcNAc", "method_in_brief": "as §1"}, "[24]": {"biological_target": "Fuc(a1-2)[Gal(a1-3)]Gal(b1-4)GlcNAc(b1-3)GalNAc", "method_in_brief": "as §1"}, "[25]": {"biological_target": "Fuc(a1-2)[Gal(a1-3)]Gal(b1-4)GlcNAc(b1-3)[Fuc(a1-2)[Gal(a1-3)]Gal(b1-4)GlcNAc(b1-6)]GalNAc", "method_in_brief": "as §1"}, "[26]": {"biological_target": "Fuc(a1-2)[Gal(a1-3)]Gal(b1-4)GlcNAc(b1-6)GalNAc", "method_in_brief": "as §1"}, "[27]": {"biological_target": "Fuc(a1-2)[Gal(a1-3)]Gal(b1-4)[Fuc(a1-3)]Glc", "method_in_brief": "as §1"}, "[28]": {"biological_target": "Fuc(a1-2)[Gal(a1-3)]Gal(b1-4)[Fuc(a1-3)]GlcNAc", "method_in_brief": "as §1"}, "[29]": {"biological_target": "Fuc(a1-2)[Gal(a1-3)]Gal(b1-4)[Fuc(a1-3)]GlcNAc(b1-3)GalNAc", "method_in_brief": "as §1"}, "[30]": {"biological_target": "Fuc(a1-2)[Gal(a1-4)]Gal(b1-4)GlcNAc", "method_in_brief": "as §1"}, "[31]": {"biological_target": "Fuc(a1-2)[GalNAc(a1-3)]Gal", "method_in_brief": "as §1"}, "[32]": {"biological_target": "Fuc(a1-2)[GalNAc(a1-3)]Gal(b1-3)GalNAc(a1-3)[Fuc(a1-2)]Gal(b1-4)GlcNAc", "method_in_brief": "as §1"}, "[33]": {"biological_target": "Fuc(a1-2)[GalNAc(a1-3)]Gal(b1-3)GalNAc(b1-3)Gal(a1-4)Gal(b1-4)Glc", "method_in_brief": "as §1"}, "[34]": {"biological_target": "Fuc(a1-2)[GalNAc(a1-3)]Gal(b1-3)GlcNAc", "method_in_brief": "as §1"}, "[35]": {"biological_target": "Fuc(a1-2)[GalNAc(a1-3)]Gal(b1-3)GlcNAc(b1-2)Man(a1-3)[Fuc(a1-2)[GalNAc(a1-3)]Gal(b1-3)GlcNAc(b1-2)Man(a1-6)]Man(b1-4)GlcNAc(b1-4)GlcNAc", "method_in_brief": "as §1"}, "[36]": {"biological_target": "Fuc(a1-2)[GalNAc(a1-3)]Gal(b1-3)GlcNAc(b1-2)Man(a1-3)[Fuc(a1-2)[GalNAc(a1-3)]Gal(b1-3)GlcNAc(b1-2)Man(a1-6)]Man(b1-4)GlcNAc(b1-4)[Fuc(a1-6)]GlcNAc", "method_in_brief": "as §1"}},
  "note": "The list shows a part of the results.",
  "data": [
    {"binder": "FGF1 (Homo sapiens), P05230 (protein) MAEGEITTFTALTEKFNLPPGNYKKPKLLYSNGGHFLRILPDGTVDGTRDRSDQHIQLQLSAESVGEVYIKSTETGQYLAMTDGLLYGSQTPNEECLFLERLEENHYNTYISKHAEKNWFVGLKKNGSCKRGPRTHYGQAILFLPLPASSED", "values": [
      {"measurement": "glycan array binding signal (z-score)", "setting": "[1]", "result": -0.25},
      {"measurement": "glycan array binding signal (z-score)", "setting": "[2]", "result": 0.112},
      {"measurement": "glycan array binding signal (z-score)", "setting": "[3]", "result": 0.987},
      {"measurement": "glycan array binding signal (z-score)", "setting": "[4]", "result": -0.549},
      {"measurement": "glycan array binding signal (z-score)", "setting": "[5]", "result": -0.413},
      {"measurement": "glycan array binding signal (z-score)", "setting": "[6]", "result": 1.94},
      {"measurement": "glycan array binding signal (z-score)", "setting": "[7]", "result": -0.764},
      {"measurement": "glycan array binding signal (z-score)", "setting": "[8]", "result": -0.858},
      {"measurement": "glycan array binding signal (z-score)", "setting": "[9]", "result": 0.087},
      {"measurement": "glycan array binding signal (z-score)", "setting": "[10]", "result": 2.68},
      {"measurement": "glycan array binding signal (z-score)", "setting": "Fuc(a1-2)Gal6S(b1-4)Glc", "result": 0.397},
      {"measurement": "glycan array binding signal (z-score)", "setting": "[11]", "result": 0.797},
      {"measurement": "glycan array binding signal (z-score)", "setting": "Fuc(a1-2)[Gal(a1-3)]Gal", "result": -0.484},
      {"measurement": "glycan array binding signal (z-score)", "setting": "[12]", "result": 0.883},
      {"measurement": "glycan array binding signal (z-score)", "setting": "[13]", "result": -1.07},
      {"measurement": "glycan array binding signal (z-score)", "setting": "[14]", "result": 0.921},
      {"measurement": "glycan array binding signal (z-score)", "setting": "[15]", "result": -0.245},
      {"measurement": "glycan array binding signal (z-score)", "setting": "[16]", "result": 0.921},
      {"measurement": "glycan array binding signal (z-score)", "setting": "[17]", "result": -0.256},
      {"measurement": "glycan array binding signal (z-score)", "setting": "[18]", "result": -0.314},
      {"measurement": "glycan array binding signal (z-score)", "setting": "[19]", "result": -0.11},
      {"measurement": "glycan array binding signal (z-score)", "setting": "[20]", "result": -0.843},
      {"measurement": "glycan array binding signal (z-score)", "setting": "[21]", "result": -0.098},
      {"measurement": "glycan array binding signal (z-score)", "setting": "[22]", "result": -0.325},
      {"measurement": "glycan array binding signal (z-score)", "setting": "[23]", "result": -0.443},
      {"measurement": "glycan array binding signal (z-score)", "setting": "[24]", "result": -0.631},
      {"measurement": "glycan array binding signal (z-score)", "setting": "[25]", "result": 1.24},
      {"measurement": "glycan array binding signal (z-score)", "setting": "[26]", "result": -0.234},
      {"measurement": "glycan array binding signal (z-score)", "setting": "[27]", "result": -0.923},
      {"measurement": "glycan array binding signal (z-score)", "setting": "[28]", "result": 0.863},
      {"measurement": "glycan array binding signal (z-score)", "setting": "[29]", "result": 0.787},
      {"measurement": "glycan array binding signal (z-score)", "setting": "[30]", "result": 2.55},
      {"measurement": "glycan array binding signal (z-score)", "setting": "[31]", "result": -0.401},
      {"measurement": "glycan array binding signal (z-score)", "setting": "[32]", "result": -0.821},
      {"measurement": "glycan array binding signal (z-score)", "setting": "[33]", "result": -0.725},
      {"measurement": "glycan array binding signal (z-score)", "setting": "[34]", "result": 0.393},
      {"measurement": "glycan array binding signal (z-score)", "setting": "[35]", "result": -0.758},
      {"measurement": "glycan array binding signal (z-score)", "setting": "[36]", "result": -0.836}
    ]}
  ]
}
